# Data published in patent US10688099B2, “Methods for modulating the amount of RNA transcripts” (PTC Therapeutics, Inc., priority 2013, dated 2020).
# The source gives many values for each of these; only a part stands here.
# Test system: RNA isoforms in PNN 1-46 SMA type I patient-derived fibroblasts
# Experiment: RNA Abundance Modulation (RNA isoform abundance, iFPM, HiSeq RNA sequencing)
# Type: cell-based, human
# Details: 3 μM
# Protocol: Cells from a cell line of interest are cultured in conditions sufficient to yield the number of cells capable of generating enough RNA for subsequent sequencing steps. Cells from the tested cell line are contacted with a compound described herein.
# To culture said cells, they are seeded, at appropriate concentrations in a volume of media in a cell culture container and incubated for 4, 5, 6, 7, 8, 9, 10, or more hours. A concentrated solution of compound in a vehicle (e.g., DMSO) is then added in sufficient volume to result in the intended final concentration of the compound, for example 100 nM, 500 nM, 1 μM, 5 μM, 10 μM, 15 μM, 20 μM, or more. The cells may also be treated with vehicle alone, as a control. A number of replicates of each concentration or control may be made (e.g., 2 replicates). The cells are then incubated at a constant temperature appropriate for cell culture of the particular cell line (e.g., 37° C.) for 6, 12, 18, 24, 48, or more hours. After incubation, the growth medium is removed and the cells are washed with the appropriate buffer (e.g., PBS). Cells are then removed from adherence to the cell culture container by treatment with a solution containing trypsin, and the trypsin subsequently quenched with the appropriate volume of buffer (e.g., DMEM-FBS). The cells are then pelleted with gentle centrifugation (e.g., ≤90×g centrifugal force) and resuspended in a buffer to lyse the cells for extraction of RNA. The cell lysates may then be frozen (e.g., at −80° C.) or, alternately, may immediately be used in a procedure to purify the RNA (e.g. by use of the RNEASY PLUS® minikit). The RNA from cell lysates is eluted in the appropriate volume of buffer (e.g., RNEASE-FREE H2O®). The resulting purified RNA may then be sequenced (e.g., using RNASeq) or analyzed using a human exon array (e.g., by GENECHIP® human exon array) to determine changes in the RNA levels in those cells treated with compound compared to those cells treated only with DMSO. The purified RNA may also be quantified by other methods known in the art.
# Using the RNA data obtained from sequencing, exon array, or other methods, a statistical analysis can reveal changes in the RNA levels of compound-treated compared with control. For example, t-test p-values may be calculated for the data obtained through sequencing and exon array methods in order to compare compound-treated cells to those treated with the DMSO control. […] Analysis of the sequencing and exon array data may then also yield predictions about the cause of the aberrant amount of an RNA transcript in the cells (e.g., perturbation of RNA splicing, RNA transcription, or RNA stability). These predictions may be further confirmed by methods known in the art. For example, RT-PCR and RT-qPCR may be used to confirm the change in amount of RNA transcripts for one or more particular transcripts of interest.
# Following the methods described above in Example 1, PNN 1-46 SMA type I patient-derived fibroblasts were treated with 300 nM or 3 μM Compounds 774 and 808 in 0.5% DMSO.
# 700,000 cells were seeded in 10 mL of medium (DMEM plus 10% FBS) in a T-75 flask. Cells were allowed to attach for at least 4 hrs, after which 50 μL of a 200× compound solution (100% DMSO) was added to each well, and the plate was incubated at 37° C. for 24 hrs.
# At the end of the incubation period, the supernatant was removed and the cells where washed with PBS. TrypLE (Invitrogen) express solution was added (e.g. 1.5 mL per one T75 flask). The flasks were incubated for 3 to 5 min at 37° C. The trypsin was then quenched, e.g., by adding 10 mL DMEM-FBS.
# Next, the cells were pelleted using gentle centrifugation without exceeding 90×g centrifugal force. The supernatant was removed and the cell pellet was re-suspended in 600 μL RLT buffer (the RLT buffer was supplemented with beta-mercaptoethanol according to the RNeasy protocol manual) by pipetting up and down until the pellet was completely dissolved […]
structure (smiles),measurement,setting,value
CCc1nc(C)cn2nc(-c3cc(=O)n4cc(C5CCN(C)CC5)cc(C)c4n3)cc12 [Compound 774],amp FC (x + 1),FNBP1 BC143513,1.49
same,ave Cpd,FNBP1 BC143513,825 iFPM
same,FC (x + 1),FNBP1 BC143514,0.0091
same,L2FC (x + 1),FNBP1 BC143514,−6.774
same,L2abs (Cpd-DMSO),FNBP1 BC143514,6.76
same,abs (Cpd-DMSO),FNBP1 BC143514,108 iFPM
same,amp FC (x + 1),FNBP1 BC143514,109.46
same,ave Cpd,FNBP1 BC143514,0 iFPM
same,FC (x + 1),FNBP1 BC143515,0.1056
same,L2FC (x + 1),FNBP1 BC143515,−3.243
same,L2abs (Cpd-DMSO),FNBP1 BC143515,7.16
same,abs (Cpd-DMSO),FNBP1 BC143515,143 iFPM
same,amp FC (x + 1),FNBP1 BC143515,9.47
same,ave Cpd,FNBP1 BC143515,16 iFPM
same,FC (x + 1),FNBP1 NM_015033,1.3897
same,L2FC (x + 1),FNBP1 NM_015033,0.475
same,L2abs (Cpd-DMSO),FNBP1 NM_015033,6.68
same,abs (Cpd-DMSO),FNBP1 NM_015033,103 iFPM
same,amp FC (x + 1),FNBP1 NM_015033,1.39
same,ave Cpd,FNBP1 NM_015033,366 iFPM
same,FC (x + 1),FOS AK290907,0.2145
same,L2FC (x + 1),FOS AK290907,−2.221
same,L2abs (Cpd-DMSO),FOS AK290907,7.56
same,abs (Cpd-DMSO),FOS AK290907,189 iFPM
same,amp FC (x + 1),FOS AK290907,4.66
same,ave Cpd,FOS AK290907,51 iFPM
same,FC (x + 1),FOS AK298659,0.2853
same,L2FC (x + 1),FOS AK298659,−1.809
same,L2abs (Cpd-DMSO),FOS AK298659,4.84
same,abs (Cpd-DMSO),FOS AK298659,29 iFPM
same,amp FC (x + 1),FOS AK298659,3.51
same,ave Cpd,FOS AK298659,10 iFPM
same,FC (x + 1),FOS NM_005252,0.1221
same,L2FC (x + 1),FOS NM_005252,−3.034
same,L2abs (Cpd-DMSO),FOS NM_005252,11.28
same,abs (Cpd-DMSO),FOS NM_005252,2482 iFPM
same,amp FC (x + 1),FOS NM_005252,8.19
same,ave Cpd,FOS NM_005252,344 iFPM
same,FC (x + 1),FOSB AK225070,0.0858
same,L2FC (x + 1),FOSB AK225070,−3.543
same,L2abs (Cpd-DMSO),FOSB AK225070,6.13
same,abs (Cpd-DMSO),FOSB AK225070,70 iFPM
same,amp FC (x + 1),FOSB AK225070,11.66
same,ave Cpd,FOSB AK225070,6 iFPM
same,FC (x + 1),FOSB EU178110,7.4119
same,L2FC (x + 1),FOSB EU178110,2.890
same,L2abs (Cpd-DMSO),FOSB EU178110,2.68
same,abs (Cpd-DMSO),FOSB EU178110,6 iFPM
same,amp FC (x + 1),FOSB EU178110,7.41
same,ave Cpd,FOSB EU178110,6 iFPM
same,FC (x + 1),FOSB EU178111,0.3242
same,L2FC (x + 1),FOSB EU178111,−1.625
same,L2abs (Cpd-DMSO),FOSB EU178111,4.81
same,abs (Cpd-DMSO),FOSB EU178111,28 iFPM
same,amp FC (x + 1),FOSB EU178111,3.08
same,ave Cpd,FOSB EU178111,12 iFPM
same,FC (x + 1),FOSB EU178112,0.0339
same,L2FC (x + 1),FOSB EU178112,−4.881
same,L2abs (Cpd-DMSO),FOSB EU178112,4.83
same,abs (Cpd-DMSO),FOSB EU178112,28 iFPM
same,amp FC (x + 1),FOSB EU178112,29.48
same,ave Cpd,FOSB EU178112,0 iFPM
same,FC (x + 1),FOSB EU178113,1.0000
same,L2FC (x + 1),FOSB EU178113,0.000
same,L2abs (Cpd-DMSO),FOSB EU178113,0
same,abs (Cpd-DMSO),FOSB EU178113,0 iFPM
same,amp FC (x + 1),FOSB EU178113,1.00
same,ave Cpd,FOSB EU178113,0 iFPM
same,FC (x + 1),FOSB EU178114,0.4759
same,L2FC (x + 1),FOSB EU178114,−1.071
same,L2abs (Cpd-DMSO),FOSB EU178114,2.12
same,abs (Cpd-DMSO),FOSB EU178114,4 iFPM
same,amp FC (x + 1),FOSB EU178114,2.10
same,ave Cpd,FOSB EU178114,3 iFPM
same,FC (x + 1),FOSB EU178115,0.1144
same,L2FC (x + 1),FOSB EU178115,−3.128
same,L2abs (Cpd-DMSO),FOSB EU178115,6.73
same,abs (Cpd-DMSO),FOSB EU178115,106 iFPM
same,amp FC (x + 1),FOSB EU178115,8.74
same,ave Cpd,FOSB EU178115,13 iFPM
same,FC (x + 1),FOSB EU178116,0.1191
same,L2FC (x + 1),FOSB EU178116,−3.070
same,L2abs (Cpd-DMSO),FOSB EU178116,3.87
same,abs (Cpd-DMSO),FOSB EU178116,15 iFPM
same,amp FC (x + 1),FOSB EU178116,8.40
same,ave Cpd,FOSB EU178116,1 iFPM
same,FC (x + 1),FOSB NM_006732,0.1243
same,L2FC (x + 1),FOSB NM_006732,−3.008
same,L2abs (Cpd-DMSO),FOSB NM_006732,4.80
same,abs (Cpd-DMSO),FOSB NM_006732,28 iFPM
same,amp FC (x + 1),FOSB NM_006732,8.04
same,ave Cpd,FOSB NM_006732,3 iFPM
same,FC (x + 1),FOSB NM_001114171,0.4559
same,L2FC (x + 1),FOSB NM_001114171,−1.133
same,L2abs (Cpd-DMSO),FOSB NM_001114171,2.95
same,abs (Cpd-DMSO),FOSB NM_001114171,8 iFPM
same,amp FC (x + 1),FOSB NM_001114171,2.19
same,ave Cpd,FOSB NM_001114171,5 iFPM
same,FC (x + 1),FOXM1 NM_021953,0.2466
same,L2FC (x + 1),FOXM1 NM_021953,−2.020
same,L2abs (Cpd-DMSO),FOXM1 NM_021953,11.89
same,abs (Cpd-DMSO),FOXM1 NM_021953,3804 iFPM
same,amp FC (x + 1),FOXM1 NM_021953,4.05
same,ave Cpd,FOXM1 NM_021953,1244 iFPM
same,FC (x + 1),FOXM1 NM_202002,7.8710
same,L2FC (x + 1),FOXM1 NM_202002,2.977
same,L2abs (Cpd-DMSO),FOXM1 NM_202002,11.95
same,abs (Cpd-DMSO),FOXM1 NM_202002,3953 iFPM
same,amp FC (x + 1),FOXM1 NM_202002,7.87
same,ave Cpd,FOXM1 NM_202002,4527 iFPM
same,FC (x + 1),FOXM1 NM_001243088,0.7976
same,L2FC (x + 1),FOXM1 NM_001243088,−0.326
same,L2abs (Cpd-DMSO),FOXM1 NM_001243088,7.78
same,abs (Cpd-DMSO),FOXM1 NM_001243088,220 iFPM
same,amp FC (x + 1),FOXM1 NM_001243088,1.25
same,ave Cpd,FOXM1 NM_001243088,867 iFPM
same,FC (x + 1),FOXM1 NM_001243089,1.4771
same,L2FC (x + 1),FOXM1 NM_001243089,0.563
same,L2abs (Cpd-DMSO),FOXM1 NM_001243089,7.89
same,abs (Cpd-DMSO),FOXM1 NM_001243089,238 iFPM
same,amp FC (x + 1),FOXM1 NM_001243089,1.48
same,ave Cpd,FOXM1 NM_001243089,735 iFPM
same,FC (x + 1),FYN AY429536,0.7603
same,L2FC (x + 1),FYN AY429536,−0.395
